Test results: the supplement of paper PMC10849652
Some of the results follow.

Protein sequences, listed by entry. Tags and fused reporters are not part of them. Lines headed by an entry give the natural chain unless they say otherwise; changes in a name come on top.
UniProt Q13615: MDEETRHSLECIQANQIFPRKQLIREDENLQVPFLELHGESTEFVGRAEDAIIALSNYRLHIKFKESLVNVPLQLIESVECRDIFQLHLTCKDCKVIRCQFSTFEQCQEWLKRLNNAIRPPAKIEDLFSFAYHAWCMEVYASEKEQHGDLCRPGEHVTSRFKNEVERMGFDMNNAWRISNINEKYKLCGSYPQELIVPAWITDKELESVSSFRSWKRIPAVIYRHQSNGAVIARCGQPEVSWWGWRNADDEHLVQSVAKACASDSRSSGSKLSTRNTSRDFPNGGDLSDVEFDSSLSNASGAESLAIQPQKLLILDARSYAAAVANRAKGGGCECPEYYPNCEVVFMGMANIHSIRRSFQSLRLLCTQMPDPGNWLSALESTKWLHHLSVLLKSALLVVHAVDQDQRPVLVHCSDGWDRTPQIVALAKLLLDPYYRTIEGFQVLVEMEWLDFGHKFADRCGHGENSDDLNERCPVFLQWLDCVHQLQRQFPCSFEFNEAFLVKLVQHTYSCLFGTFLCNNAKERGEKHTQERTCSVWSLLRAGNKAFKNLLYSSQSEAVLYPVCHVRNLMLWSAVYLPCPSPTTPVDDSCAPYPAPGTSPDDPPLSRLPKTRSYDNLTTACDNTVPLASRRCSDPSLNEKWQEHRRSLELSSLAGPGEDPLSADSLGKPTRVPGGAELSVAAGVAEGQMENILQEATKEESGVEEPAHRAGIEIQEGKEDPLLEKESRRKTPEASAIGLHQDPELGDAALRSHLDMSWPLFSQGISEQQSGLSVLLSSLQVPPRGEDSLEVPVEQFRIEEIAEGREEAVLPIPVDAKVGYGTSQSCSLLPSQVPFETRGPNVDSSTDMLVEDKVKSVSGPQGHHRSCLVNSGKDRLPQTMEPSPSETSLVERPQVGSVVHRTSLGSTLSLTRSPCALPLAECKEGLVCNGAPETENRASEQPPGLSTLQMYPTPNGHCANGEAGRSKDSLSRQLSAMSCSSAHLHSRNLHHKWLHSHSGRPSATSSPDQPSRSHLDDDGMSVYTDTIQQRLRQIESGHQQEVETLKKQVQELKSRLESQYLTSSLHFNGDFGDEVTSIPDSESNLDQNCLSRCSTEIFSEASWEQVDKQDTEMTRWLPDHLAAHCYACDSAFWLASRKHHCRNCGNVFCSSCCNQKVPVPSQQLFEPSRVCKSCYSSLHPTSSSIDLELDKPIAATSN
UniProt Q969H8: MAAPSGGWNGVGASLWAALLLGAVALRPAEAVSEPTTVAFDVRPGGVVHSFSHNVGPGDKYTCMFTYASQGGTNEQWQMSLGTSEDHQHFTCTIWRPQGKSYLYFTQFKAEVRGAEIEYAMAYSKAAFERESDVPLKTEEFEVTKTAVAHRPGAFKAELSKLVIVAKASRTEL
UniProt P00156: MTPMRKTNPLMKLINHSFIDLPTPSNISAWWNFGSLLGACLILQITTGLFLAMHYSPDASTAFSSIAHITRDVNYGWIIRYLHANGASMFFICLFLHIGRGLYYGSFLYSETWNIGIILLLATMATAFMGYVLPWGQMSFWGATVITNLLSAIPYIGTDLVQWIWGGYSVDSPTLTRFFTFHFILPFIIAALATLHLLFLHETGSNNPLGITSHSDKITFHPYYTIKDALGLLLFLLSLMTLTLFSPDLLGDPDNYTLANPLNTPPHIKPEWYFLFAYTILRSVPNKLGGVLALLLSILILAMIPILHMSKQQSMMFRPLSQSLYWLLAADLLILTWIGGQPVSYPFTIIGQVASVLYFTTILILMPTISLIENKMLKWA
UniProt P00403, whole entry, looked up: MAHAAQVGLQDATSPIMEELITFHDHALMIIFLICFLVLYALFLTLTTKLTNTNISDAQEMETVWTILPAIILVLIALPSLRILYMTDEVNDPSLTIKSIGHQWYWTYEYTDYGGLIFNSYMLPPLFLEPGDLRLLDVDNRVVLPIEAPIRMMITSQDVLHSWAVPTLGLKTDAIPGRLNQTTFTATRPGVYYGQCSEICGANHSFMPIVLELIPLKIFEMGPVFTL
UniProt O94832: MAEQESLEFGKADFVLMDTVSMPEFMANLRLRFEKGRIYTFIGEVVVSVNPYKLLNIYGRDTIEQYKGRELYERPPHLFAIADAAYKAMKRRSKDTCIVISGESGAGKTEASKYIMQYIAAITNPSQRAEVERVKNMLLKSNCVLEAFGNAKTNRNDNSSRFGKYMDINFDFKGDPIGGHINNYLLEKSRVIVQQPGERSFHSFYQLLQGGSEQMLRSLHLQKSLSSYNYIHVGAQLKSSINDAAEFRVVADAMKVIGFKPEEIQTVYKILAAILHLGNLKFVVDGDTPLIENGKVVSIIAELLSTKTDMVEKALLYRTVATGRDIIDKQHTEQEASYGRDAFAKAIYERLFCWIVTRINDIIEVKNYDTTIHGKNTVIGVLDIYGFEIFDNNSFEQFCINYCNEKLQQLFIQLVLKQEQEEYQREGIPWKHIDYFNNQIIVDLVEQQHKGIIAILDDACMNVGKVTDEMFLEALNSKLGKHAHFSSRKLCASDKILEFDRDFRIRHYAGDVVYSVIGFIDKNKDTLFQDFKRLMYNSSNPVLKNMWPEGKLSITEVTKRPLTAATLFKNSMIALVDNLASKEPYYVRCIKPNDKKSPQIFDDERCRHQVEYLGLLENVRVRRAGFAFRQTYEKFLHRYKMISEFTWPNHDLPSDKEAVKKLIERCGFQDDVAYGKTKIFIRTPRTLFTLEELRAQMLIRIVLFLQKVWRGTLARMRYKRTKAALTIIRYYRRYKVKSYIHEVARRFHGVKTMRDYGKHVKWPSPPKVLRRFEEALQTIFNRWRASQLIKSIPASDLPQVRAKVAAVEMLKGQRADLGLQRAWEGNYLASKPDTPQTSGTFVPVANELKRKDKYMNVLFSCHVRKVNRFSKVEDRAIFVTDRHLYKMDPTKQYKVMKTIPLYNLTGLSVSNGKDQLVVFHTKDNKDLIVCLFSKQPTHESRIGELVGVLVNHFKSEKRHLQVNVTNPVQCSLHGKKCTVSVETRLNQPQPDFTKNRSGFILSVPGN
UniProt Q9ULH7: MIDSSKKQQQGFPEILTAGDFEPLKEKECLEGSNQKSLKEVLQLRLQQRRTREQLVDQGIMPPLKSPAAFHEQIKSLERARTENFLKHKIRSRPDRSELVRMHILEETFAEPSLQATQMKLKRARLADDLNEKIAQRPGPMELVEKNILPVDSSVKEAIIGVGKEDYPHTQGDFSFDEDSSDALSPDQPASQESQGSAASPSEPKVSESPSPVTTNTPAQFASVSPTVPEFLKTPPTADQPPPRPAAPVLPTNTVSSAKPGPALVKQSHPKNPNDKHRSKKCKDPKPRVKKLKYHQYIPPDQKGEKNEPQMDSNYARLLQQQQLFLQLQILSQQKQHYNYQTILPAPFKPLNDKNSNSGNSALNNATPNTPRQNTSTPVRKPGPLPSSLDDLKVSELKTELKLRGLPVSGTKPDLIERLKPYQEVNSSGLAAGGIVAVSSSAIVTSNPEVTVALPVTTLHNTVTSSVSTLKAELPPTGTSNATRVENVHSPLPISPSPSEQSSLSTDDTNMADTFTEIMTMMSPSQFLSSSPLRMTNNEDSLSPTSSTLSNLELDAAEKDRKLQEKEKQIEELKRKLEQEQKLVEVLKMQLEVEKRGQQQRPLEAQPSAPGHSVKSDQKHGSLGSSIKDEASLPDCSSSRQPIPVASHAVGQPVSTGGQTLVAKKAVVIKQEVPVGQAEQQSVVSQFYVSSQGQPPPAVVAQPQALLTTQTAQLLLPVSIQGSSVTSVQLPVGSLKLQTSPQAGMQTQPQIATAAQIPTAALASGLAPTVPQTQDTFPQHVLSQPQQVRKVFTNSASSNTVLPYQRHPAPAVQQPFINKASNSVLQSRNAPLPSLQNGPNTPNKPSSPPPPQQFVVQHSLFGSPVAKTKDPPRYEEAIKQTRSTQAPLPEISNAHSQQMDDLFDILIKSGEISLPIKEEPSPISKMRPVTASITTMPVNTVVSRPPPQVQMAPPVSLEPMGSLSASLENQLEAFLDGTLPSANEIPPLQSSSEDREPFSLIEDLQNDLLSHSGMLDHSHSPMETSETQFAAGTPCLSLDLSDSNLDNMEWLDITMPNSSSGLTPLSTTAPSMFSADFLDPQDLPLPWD
UniProt Q9UM54, whole entry, looked up: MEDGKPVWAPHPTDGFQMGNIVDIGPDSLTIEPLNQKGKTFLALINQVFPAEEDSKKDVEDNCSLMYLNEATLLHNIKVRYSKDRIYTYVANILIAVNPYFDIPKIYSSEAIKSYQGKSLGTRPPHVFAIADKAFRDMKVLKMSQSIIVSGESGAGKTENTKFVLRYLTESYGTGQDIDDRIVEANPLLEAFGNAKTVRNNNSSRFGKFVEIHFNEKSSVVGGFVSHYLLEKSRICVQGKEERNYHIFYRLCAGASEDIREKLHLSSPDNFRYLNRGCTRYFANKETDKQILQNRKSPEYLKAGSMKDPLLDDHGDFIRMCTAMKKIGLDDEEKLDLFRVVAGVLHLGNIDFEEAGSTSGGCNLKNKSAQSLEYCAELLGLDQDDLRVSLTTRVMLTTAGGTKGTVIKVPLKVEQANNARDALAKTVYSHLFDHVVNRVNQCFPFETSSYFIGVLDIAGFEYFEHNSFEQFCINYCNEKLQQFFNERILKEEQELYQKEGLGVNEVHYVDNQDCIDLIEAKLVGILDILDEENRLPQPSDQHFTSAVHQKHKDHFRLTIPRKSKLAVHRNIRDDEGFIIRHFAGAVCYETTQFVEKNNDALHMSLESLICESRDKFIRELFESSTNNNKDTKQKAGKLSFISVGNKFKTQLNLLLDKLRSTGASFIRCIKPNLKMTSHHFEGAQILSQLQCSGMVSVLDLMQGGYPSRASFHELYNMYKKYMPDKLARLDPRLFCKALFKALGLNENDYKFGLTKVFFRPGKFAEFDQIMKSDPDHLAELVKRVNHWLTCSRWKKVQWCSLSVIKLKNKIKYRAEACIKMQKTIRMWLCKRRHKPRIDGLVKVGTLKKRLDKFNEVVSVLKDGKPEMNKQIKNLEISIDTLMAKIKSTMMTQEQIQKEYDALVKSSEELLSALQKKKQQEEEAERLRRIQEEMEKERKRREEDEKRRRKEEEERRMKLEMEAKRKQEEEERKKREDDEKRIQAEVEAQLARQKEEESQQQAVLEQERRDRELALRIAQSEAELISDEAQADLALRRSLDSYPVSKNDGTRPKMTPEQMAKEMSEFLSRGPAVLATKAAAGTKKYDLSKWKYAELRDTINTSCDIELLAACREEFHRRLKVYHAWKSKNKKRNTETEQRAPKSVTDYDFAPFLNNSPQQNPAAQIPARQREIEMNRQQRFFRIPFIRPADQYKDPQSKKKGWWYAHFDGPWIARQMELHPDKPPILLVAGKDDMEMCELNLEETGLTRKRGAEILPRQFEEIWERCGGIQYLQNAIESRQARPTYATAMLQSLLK
UniProt Q9Y217: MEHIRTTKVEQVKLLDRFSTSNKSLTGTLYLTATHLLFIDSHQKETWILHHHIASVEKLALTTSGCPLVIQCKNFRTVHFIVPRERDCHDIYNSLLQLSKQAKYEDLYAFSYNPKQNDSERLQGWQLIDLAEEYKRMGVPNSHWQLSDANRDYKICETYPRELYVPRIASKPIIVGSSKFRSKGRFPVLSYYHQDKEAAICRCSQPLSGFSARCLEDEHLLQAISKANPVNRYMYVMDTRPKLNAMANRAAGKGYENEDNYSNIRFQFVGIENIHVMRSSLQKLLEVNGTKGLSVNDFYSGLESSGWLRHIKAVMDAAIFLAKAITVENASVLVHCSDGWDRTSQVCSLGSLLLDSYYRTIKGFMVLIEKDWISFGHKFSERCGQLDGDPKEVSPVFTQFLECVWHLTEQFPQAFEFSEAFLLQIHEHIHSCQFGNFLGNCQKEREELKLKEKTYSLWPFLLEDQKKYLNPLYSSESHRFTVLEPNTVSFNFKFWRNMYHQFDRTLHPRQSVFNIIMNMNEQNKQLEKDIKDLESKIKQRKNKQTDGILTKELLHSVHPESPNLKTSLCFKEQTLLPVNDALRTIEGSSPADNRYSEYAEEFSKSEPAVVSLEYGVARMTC
UniProt P60660, whole entry, looked up: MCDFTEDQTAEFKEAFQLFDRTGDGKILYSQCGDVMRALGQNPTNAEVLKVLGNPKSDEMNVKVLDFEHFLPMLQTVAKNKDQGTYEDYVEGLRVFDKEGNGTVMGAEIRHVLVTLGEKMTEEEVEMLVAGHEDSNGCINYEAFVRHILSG
UniProt Q9Y3D2: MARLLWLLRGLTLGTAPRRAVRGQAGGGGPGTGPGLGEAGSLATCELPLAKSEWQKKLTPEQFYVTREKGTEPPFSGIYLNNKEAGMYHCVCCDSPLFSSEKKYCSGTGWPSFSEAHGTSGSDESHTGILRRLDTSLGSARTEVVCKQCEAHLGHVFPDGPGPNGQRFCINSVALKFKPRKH

Key:
Experiment in all cases: log2 fold change, soluble protein after heating vs DMSO (PISA); higher = thermal stabilisation; K562 cells, 10 uM, 30 min; active = over 0.2 and 3.5 SD of the protein, either way, in both replicates (recomputed)
[1] = compound: CS(=O)(=O)c1ccc(-c2cnc(N)c(C(=O)Nc3ccccc3)n2)cc1
Method in brief: (§1)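 K562 cells (2×10^6 cells/mL) were treated with 10 μM compound for 30 min, and aliquots were heated for 3 min over 48°C-58°C. Pooled aliquots were extracted in PBS with 0.5% NP-40 at 4°C, and the supernatant after 21,000xg for 90 min was measured by TMTpro 16plex LC-MS/MS with channel sums equalised. Reported thermal stability, relative to control samples and from duplicates, is a log2 fold change.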

crizotinib = compound: C[C@@H](Oc1cc(-c2cnn(C3CCNCC3)c2)cnc1N)c1c(Cl)ccc(F)c1Cl [crizotinib]
Method in brief: as §1

[2] = compound: C[C@@H]1COCCN1C2=NC(=NC(=C2)C3(CC3)S(=O)(=O)C)C4=C5C=CNC5=CC=C4
Method in brief: as §1

[3] = compound: C[C@H](C1=CC=C(C=C1)C(=O)NC2=C3C=CNC3=NC=C2)N
Method in brief: as §1

duvelisib = compound: C[C@H](Nc1ncnc2nc[nH]c12)c1cc2cccc(Cl)c2c(=O)n1-c1ccccc1 [duvelisib]
Method in brief: as §1

gandotinib = compound: Cc1cc(Nc2cc(CN3CCOCC3)c3nc(C)c(Cc4ccc(Cl)cc4F)n3n2)n[nH]1 [gandotinib]
Method in brief: as §1

tozasertib = compound: Cc1cc(Nc2cc(N3CCN(C)CC3)nc(Sc3ccc(NC(=O)C4CC4)cc3)n2)n[nH]1 [tozasertib]
Method in brief: as §1

[4] = compound: Cc1cc(SCc2sc(-c3ccc(C(F)(F)F)cc3)nc2C)ccc1OCC(=O)O
Method in brief: as §1

doramapimod = compound: Cc1ccc(-n2nc(C(C)(C)C)cc2NC(=O)Nc2ccc(OCCN3CCOCC3)c3ccccc23)cc1 [doramapimod]
Method in brief: as §1

ispinesib = compound: Cc1ccc(C(=O)N(CCCN)[C@@H](c2nc3cc(Cl)ccc3c(=O)n2Cc2ccccc2)C(C)C)cc1 [ispinesib]
Method in brief: as §1

bafetinib = compound: Cc1ccc(NC(=O)c2ccc(CN3CC[C@H](N(C)C)C3)c(C(F)(F)F)c2)cc1Nc1nccc(-c2cncnc2)n1 [bafetinib]
Method in brief: as §1

[5] = compound: Cc1cccc(CC(=O)N2CCc3c2ccc(-c2cn(C)c4ncnc(N)c24)c3F)n1
Method in brief: as §1

nilotinib = compound: Cc1cn(-c2cc(NC(=O)c3ccc(C)c(Nc4nccc(-c5cccnc5)n4)c3)cc(C(F)(F)F)c2)cn1 [nilotinib]
Method in brief: as §1

[6] = compound: Cc1nc(Nc2n[nH]c3c2CN(C(=O)N[C@H](CN(C)C)c2ccccc2)C3(C)C)c2sccc2n1
Method in brief: as §1

dasatinib = compound: Cc1nc(Nc2ncc(C(=O)Nc3c(C)cccc3Cl)s2)cc(N2CCN(CCO)CC2)n1 [dasatinib]
Method in brief: as §1

[7] = compound: Cc1ncc(-c2ccnc(Nc3ccc(S(C)(=O)=O)cc3)n2)n1C(C)C
Method in brief: as §1

[8] = compound: Cn1cc(-c2ccc3c(c2)CCN3C(=O)Cc2cccc(C(F)(F)F)c2)c2c(N)ncnc21
Method in brief: as §1

[9] = compound: Cn1cc(-c2ccc3nnc(C(F)(F)c4ccc5ncccc5c4)n3n2)cn1
Method in brief: as §1

tipifarnib = compound: Cn1cncc1[C@@](N)(c1ccc(Cl)cc1)c1ccc2c(c1)c(-c1cccc(Cl)c1)cc(=O)n2C [tipifarnib]
Method in brief: as §1

mubritinib = compound: FC(F)(F)c1ccc(/C=C/c2nc(COc3ccc(CCCCn4ccnn4)cc3)co2)cc1 [mubritinib]
Method in brief: as §1

Measured: log2 fold change

MTMR3 (UniProt Q13615)
inactive: [1] -0.013 | crizotinib -0.054 | [2] 0.11 | [3] 0.05 | duvelisib 0.039 | gandotinib 0.032 | tozasertib -0.112 | [4] -0.011 | doramapimod 0.034 | ispinesib -0.081 | bafetinib 0.122 | [5] -0.034 | nilotinib 0.012 | [6] -0.055 | dasatinib -0.057 | [7] -0.024 | [8] 0.136 | [9] 0.015 | tipifarnib -0.049 | mubritinib 0.042

MYH14 isoform 2 (UniProt Q7Z406)
inactive: [1] 0.013 | crizotinib -0.021 | [2] 0.019 | [3] -0.012 | duvelisib -0.01 | gandotinib 0.023 | tozasertib 0.019 | [4] -0.027 | doramapimod -0.029 | ispinesib 0.032 | bafetinib -0.059 | [5] 0.03 | nilotinib -0.019 | [6] 0.036 | dasatinib -0.007 | [7] -0.008 | [8] -0.003 | [9] 0.021 | tipifarnib -0.053 | mubritinib 0.066

MTHFR isoform 2 (UniProt P42898)
inactive: [1] 0.07 | crizotinib -0.03 | [2] 0.151 | [3] -0.013 | duvelisib 0.086 | gandotinib 0.037 | tozasertib -0.021 | [4] 0.007 | doramapimod 0.02 | ispinesib -0.017 | bafetinib 0.039 | [5] 0.008 | nilotinib -0.026 | [6] 0.135 | dasatinib -0.04 | [7] -0.005 | [8] 0.069 | [9] 0.007 | tipifarnib -0.035 | mubritinib 0.085

Quoted from the listing (2 entries):
MTMR3 (UniProt Q13615)
inactive: [1] -0.013 | crizotinib -0.054 | [2] 0.11 | [3] 0.05 | duvelisib 0.039 | gandotinib 0.032 | tozasertib -0.112 | [4] -0.011 | doramapimod 0.034 | ispinesib -0.081 | bafetinib 0.122 | [5] -0.034 | nilotinib 0.012 | [6] -0.055 | dasatinib -0.057 | [7] -0.024 | [8] 0.136 | [9] 0.015 | tipifarnib -0.049 | mubritinib 0.042

MYH14 isoform 2 (UniProt Q7Z406)
inactive: [1] 0.013 | crizotinib -0.021 | [2] 0.019 | [3] -0.012 | duvelisib -0.01 | gandotinib 0.023 | tozasertib 0.019 | [4] -0.027 | doramapimod -0.029 | ispinesib 0.032 | bafetinib -0.059 | [5] 0.03 | nilotinib -0.019 | [6] 0.036 | dasatinib -0.007 | [7] -0.008 | [8] -0.003 | [9] 0.021 | tipifarnib -0.053 | mubritinib 0.066

(list continues)

MRPS14 (UniProt O60783)
inactive: [1] -0.025 | crizotinib -0.14 | [2] -0.052 | [3] 0.121 | duvelisib -0.038 | gandotinib -0.189 | tozasertib -0.087 | [4] 0.117 | doramapimod 0.109 | ispinesib -0.14 | bafetinib 0.103 | [5] 0.084 | nilotinib -0.229 | [6] 0.086 | dasatinib -0.062 | [7] -0.086 | [8] -0.102 | [9] -0.023 | tipifarnib 0.115

MRPS28 (UniProt Q9Y2Q9)
inactive: [1] -0.064 | crizotinib 0.036 | [2] -0.046 | [3] 0.141 | duvelisib -0.041 | gandotinib -0.153 | tozasertib -0.08 | [4] 0.077 | doramapimod 0.048 | ispinesib -0.094 | bafetinib 0.201 | [5] 0.177 | nilotinib -0.114 | [6] 0.114 | dasatinib -0.016 | [7] -0.077 | [8] -0.085 | [9] 0.066 | tipifarnib 0 | mubritinib 0.073

MYDGF (UniProt Q969H8)
inactive: [1] 0.011 | crizotinib 0.113 | [2] -0.038 | [3] -0.074 | duvelisib -0.041 | gandotinib 0.042 | tozasertib -0.025 | [4] -0.017 | doramapimod -0.029 | ispinesib 0.038 | bafetinib -0.098 | [5] -0.04 | nilotinib 0.005 | [6] 0.003 | dasatinib 0.064 | [7] -0.016 | [8] -0.039 | [9] 0.012 | tipifarnib 0.012 | mubritinib 0.029

MT-CYB (UniProt P00156)
inactive: [1] 0.026 | crizotinib -0.061 | [2] 0.078 | [3] -0.12 | duvelisib 0.196 | gandotinib -0.145 | tozasertib 0.028 | [4] 0.014 | doramapimod -0.003 | ispinesib -0.025 | bafetinib 0.005 | [5] 0.013 | nilotinib 0.182 | [6] -0.024 | dasatinib 0.051 | [7] 0.193 | [8] 0.106 | [9] 0.029 | tipifarnib 0.159 | mubritinib -0.165

MT-CO2 (UniProt P00403)
inactive: [1] -0.008 | crizotinib -0.006 | [2] 0.18 | [3] -0.082 | duvelisib 0.161 | gandotinib 0.051 | tozasertib 0.045 | [4] -0.024 | doramapimod 0.083 | ispinesib 0.024 | bafetinib -0.047 | [5] -0.022 | nilotinib 0.013 | [6] -0.018 | dasatinib -0.06 | [7] -0.028 | [8] 0.016 | [9] -0.004 | tipifarnib 0.127 | mubritinib 0.092

MYO1D (UniProt O94832)
inactive: [1] 0.057 | crizotinib -0.06 | [2] -0.185 | [3] 0.258 | duvelisib -0.162 | gandotinib 0.088 | tozasertib 0.002 | [4] -0.014 | doramapimod 0.152 | ispinesib -0.156 | bafetinib -0.055 | [5] 0.122 | nilotinib -0.1 | [6] -0.113 | dasatinib 0.101 | [7] 0.039 | [8] -0.121 | [9] -0.071 | tipifarnib 0.146 | mubritinib -0.154

MRTFB isoform 5 (UniProt Q9ULH7)
inactive: [1] 0.017 | crizotinib -0.046 | [2] 0.06 | [3] -0.004 | duvelisib 0.068 | gandotinib -0.012 | tozasertib 0.001 | [4] -0.05 | doramapimod -0.037 | ispinesib -0.013 | bafetinib -0.032 | [5] 0.025 | nilotinib 0.029 | [6] 0.021 | dasatinib 0.087 | [7] -0.004 | [8] 0.088 | [9] -0.004 | tipifarnib -0.007 | mubritinib 0.063

MRPS7 (UniProt Q9Y2R9)
inactive: [1] 0.014 | crizotinib -0.015 | [2] -0.009 | [3] 0.124 | duvelisib 0.011 | gandotinib 0.055 | tozasertib -0.025 | [4] 0.001 | doramapimod 0.034 | ispinesib -0.257 | bafetinib 0.094 | [5] 0.099 | nilotinib -0.127 | [6] -0.014 | dasatinib 0.07 | [7] -0.037 | [8] -0.046 | [9] 0.018 | tipifarnib -0.026 | mubritinib 0.073

MYO6 isoform 6 (UniProt Q9UM54)
inactive: [1] 0.013 | crizotinib 0.044 | [2] 0.064 | [3] -0.042 | duvelisib 0.07 | gandotinib -0.037 | tozasertib -0.066 | [4] -0.045 | doramapimod 0.048 | ispinesib 0.038 | bafetinib -0.063 | [5] -0.015 | nilotinib 0.036 | [6] -0.018 | dasatinib -0.01 | [7] 0.002 | [8] 0.064 | [9] -0.046 | tipifarnib -0.019 | mubritinib 0.063

MRPS11 (UniProt P82912)
inactive: [1] 0.091 | crizotinib 0.011 | [2] 0.047 | [3] 0.173 | duvelisib 0.031 | gandotinib -0.108 | tozasertib -0.07 | [4] 0.177 | doramapimod 0.045 | ispinesib -0.364 | bafetinib 0.266 | [5] -0.033 | nilotinib -0.188 | [6] 0.179 | dasatinib -0.16 | [7] 0.11 | [8] 0.02 | [9] 0.14 | tipifarnib -0.015 | mubritinib 0.164

MTMR6 (UniProt Q9Y217)
inactive: [1] -0.049 | crizotinib 0.049 | [2] 0.151 | [3] 0.048 | duvelisib 0.099 | gandotinib -0.045 | tozasertib 0.02 | [4] -0.008 | doramapimod -0.207 | ispinesib -0.011 | bafetinib -0.116 | [5] 0.035 | nilotinib -0.029 | [6] 0.035 | dasatinib -0.138 | [7] 0.102 | [8] 0.036 | [9] -0.099 | tipifarnib 0.035 | mubritinib 0.006

MYL6 isoform 2 (UniProt P60660)
inactive: [1] 0 | crizotinib 0.023 | [2] 0.082 | [3] -0.072 | duvelisib 0.067 | gandotinib -0.011 | tozasertib 0.075 | [4] 0.002 | doramapimod -0.023 | ispinesib 0.04 | bafetinib -0.066 | [5] -0.001 | nilotinib -0.03 | [6] -0.073 | dasatinib 0.016 | [7] -0.025 | [8] 0.015 | [9] -0.011 | tipifarnib -0.007 | mubritinib 0.044

MSRB2 (UniProt Q9Y3D2)
inactive: [1] 0.016 | crizotinib 0.079 | [2] -0.059 | [3] 0.1 | duvelisib 0.092 | gandotinib 0.124 | tozasertib -0.172 | [4] -0.006 | doramapimod -0.038 | ispinesib 0.026 | bafetinib -0.055 | [5] -0.002 | nilotinib 0.109 | [6] 0.023 | dasatinib -0.056 | [7] 0.047 | [8] 0.034 | [9] -0.236 | tipifarnib 0.041 | mubritinib -0.081
